Reference: the supplement of paper PMC10331698
± gives the standard deviation of the averaged measurements. Most values lie at the level of the controls, where differences are scatter.

What was measured:
Assay in all cases: level (log10 ratio to DMSO vehicle control); higher = higher biomarker level / cell amount than vehicle control
[1] = compound: OCC(F)(F)C(F)(F)C(F)(F)C(F)(F)C(F)(F)C(F)F [1H,1H,7H-Dodecafluoro-1-heptanol]; details: 2200 nM; in DMSO
Protocol: (§1)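 BioMAP Diversity Plus panel of 12 human primary cell co-culture systems (3C, 4H, LPS, SAg, BT, BF4T, BE3C, CASM3C, HDF3CGF, KF3CT, MyoF, Mphg). Compounds were added 1 h before stimulation and left for 24 h (MyoF 48 h; BT 72 h for soluble read-outs or 6 d for IgG). Biomarkers were read by ELISA, cytotoxicity by SRB, PBMC viability and proliferation by Alamar Blue. Each well value was divided by the mean of 8 DMSO control wells on the same plate and log10 transformed; duplicate blinded samples were tested at 4 concentrations.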

[2] = compound: NC(=O)C(F)(F)C(F)(F)C(F)(F)C(F)F; details: in DMSO
Protocol: as §1

[3] = compound: O=P(O)(O)CCC(F)(F)C(F)(F)C(F)(F)C(F)(F)C(F)(F)C(F)(F)F [2-(Perfluorohexyl)ethylphosphonic acid]; details: 2200 nM; in DMSO
Protocol: as §1

Pentafluoropropionamide = compound: NC(=O)C(F)(F)C(F)(F)F [Pentafluoropropionamide]; details: 2200 nM; in DMSO
Protocol: as §1

[4] = compound: O=S(=O)(O)C(F)(F)C(F)(F)C(F)(F)C(F)(F)C(F)(F)C(F)(F)C(F)(F)C(F)(F)F [Potassium perfluorooctanesulfonate]; details: 2200 nM; in DMSO
Protocol: as §1

[5] = compound: O=S(=O)(O)C(F)(F)C(F)(F)C(F)(F)C(F)(F)C(F)(F)C(F)(F)C(F)(F)C(F)(F)F [Perfluorooctanesulfonic acid]; details: 2200 nM; in DMSO
Protocol: as §1

[6] = compound: CO[Si](C)(CCC(F)(F)C(F)(F)C(F)(F)C(F)(F)C(F)(F)C(F)(F)F)OC [Dimethoxymethyl((perfluorohexyl)ethyl)silane]; details: in DMSO
Protocol: as §1

[7] = compound: C=CC(=O)OCC(F)(F)C(F)(F)C(F)(F)C(F)(F)C(F)(F)C(F)(F)C(F)(F)F [1H,1H-Perfluorooctyl acrylate]; details: 2200 nM; in DMSO
Protocol: as §1

[8] = compound: COC(=O)C(F)(F)C(F)(F)OC(F)(C(F)(F)F)C(F)(F)OC(F)=C(F)F [Methyl perfluoro(3-(1-ethenyloxypropan-2-yloxy)propanoate)]; details: in DMSO
Protocol: as §1

Heptafluorobutyl iodide = compound: FC(F)(F)C(F)(F)C(F)(F)CI [Heptafluorobutyl iodide]; details: 2200 nM; in DMSO
Protocol: as §1

[9] = compound: C=C(C)C(=O)OCC(F)(F)C(F)(F)C(F)(F)C(F)(F)C(F)(F)C(F)(F)C(F)(F)F; details: in DMSO
Protocol: as §1

[10] = compound: O=C(O)C(F)(F)C(F)(F)C(F)F [4H-Perfluorobutanoic acid]; details: in DMSO
Protocol: as §1

[11] = compound: FC(F)(F)C(F)(F)C(F)(F)CC1CO1 [1H,1H-Heptafluorobutyl epoxide]; details: 2200 nM; in DMSO
Protocol: as §1

[12] = compound: NS(=O)(=O)C(F)(F)C(F)(F)C(F)(F)C(F)(F)C(F)(F)C(F)(F)C(F)(F)C(F)(F)F [Perfluorooctanesulfonamide]; details: in DMSO
Protocol: as §1

[13] = compound: OCCCCC(F)(F)C(F)(F)C(F)(F)C(F)(F)F [4:4 Fluorotelomer alcohol]; details: 2200 nM; in DMSO
Protocol: as §1

[14] = compound: O=S(=O)(F)C(F)(F)C(F)(F)C(F)(F)C(F)(F)C(F)(F)C(F)(F)C(F)(F)C(F)(F)F [Perfluorooctanesulfonyl fluoride]; details: 2200 nM; in DMSO
Protocol: as §1

[15] = compound: C=CC(F)(F)C(F)(F)C(F)(F)C(F)(F)C(F)(F)C(F)(F)C(F)(F)C(F)(F)C=C [1,8-Divinylperfluorooctane]; details: in DMSO
Protocol: as §1

[16] = compound: O=S(=O)(OCC(F)(F)F)C(F)(F)C(F)(F)C(F)(F)C(F)(F)F [2,2,2-Trifluoroethyl perfluorobutanesulfonate]; details: 2200 nM; in DMSO
Protocol: as §1

Test System	level (log10) [1]	level (log10) ([2]; 2200 nM)	level (log10) ([2]; 6700 nM)	level (log10) ([2]; 20000 nM)	level (log10) ([2]; 60000 nM)	level (log10) [3]	level (log10) (Pentafluoropropionamide)	level (log10) [4]	level (log10) [5]	level (log10) ([6]; 740 nM)	level (log10) ([6]; 2200 nM)	level (log10) [7]	level (log10) ([8]; 740 nM)	level (log10) ([8]; 2200 nM)	level (log10) (Heptafluorobutyl iodide)	level (log10) ([9]; 740 nM)	level (log10) ([9]; 2200 nM)	level (log10) ([10]; 2200 nM)	level (log10) ([10]; 6700 nM)	level (log10) ([10]; 20000 nM)	level (log10) ([10]; 60000 nM)	level (log10) [11]	level (log10) ([12]; 2200 nM)	level (log10) ([12]; 6700 nM)	level (log10) ([12]; 20000 nM)	level (log10) [13]	level (log10) [14]	level (log10) ([15]; 740 nM)	level (log10) ([15]; 2200 nM)	level (log10) [16]
BF4T:SRB	0.0045 ± 0.015	0.001 ± 0.011	-0.0075 ± 0.00071	-0.0125 ± 0.011	-0.0025 ± 0.0078	0 ± 0.013	-0.004 ± 0.011	-0.0025 ± 0.012	-0.0015 ± 0.005	-0.002 ± 0.0014	-0.001 ± 0.0014	0.005 ± 0.0057	0.0155 ± 0.0092	-0.001 ± 0.0071	0.013 ± 0.024	-0.0025 ± 0.005	-0.0025 ± 0.0035	-0.0065 ± 0.0064	0.0005 ± 0.0021	-0.008 ± 0.0057	-0.006 ± 0.0042	0 ± 0.0042	0.0005 ± 0.0078	-0.009 ± 0.0028	-0.052	-0.0035 ± 0.0064	0.004 ± 0.018	-0.002 ± 0.0014	-0.002 ± 0.0014	0.005 ± 0.016
MyoF:TIMP-1	-0.0165 ± 0.047	-0.0435 ± 0.023	-0.031 ± 0.011	-0.024 ± 0.023	-0.0505 ± 0.00071	-0.039 ± 0.037	-0.0615 ± 0.049	0.0405 ± 0.094	0.0285 ± 0.015	-0.0255 ± 0.005	-0.0195 ± 0.00071	0.0095 ± 0.0092	0.023 ± 0.023	0.0185 ± 0.018	-0.0645 ± 0.094	0.0295 ± 0.056	0.01 ± 0.018	0.026 ± 0.011	0.0045 ± 0.039	0.023 ± 0.016	0.0465 ± 0.076	-0.0455 ± 0.096	0.0265 ± 0.022	-0.007 ± 0.027	-0.098 ± 0.018	0.0335 ± 0.042	-0.0085 ± 0.022	-0.0565 ± 0.059	-0.0165 ± 0.049	-0.018 ± 0.017
BE3C:EGFR	0.005 ± 0.0057	0.0095 ± 0.035	0.0055 ± 0.019	0.0065 ± 0.032	-0.008 ± 0.0099	0.0015 ± 0.035	-0.024 ± 0.0057	0.008 ± 0.018	-0.003 ± 0.042	-0.009 ± 0.017	-0.007 ± 0.0099	0.007 ± 0.014	-0.001 ± 0.0042	0.004 ± 0.0071	-0.016 ± 0.014	-0.0055 ± 0.015	-0.0165 ± 0.019	0.013 ± 0.0014	-0.0135 ± 0.011	-0.0085 ± 0.0064	0.032 ± 0.025	-0.018 ± 0.0028	-0.007 ± 0.017	-0.0005 ± 0.00071	-0.044 ± 0.0014	0.0275 ± 0.049	-0.006 ± 0.0057	-0.007 ± 0.0014	-0.023 ± 0.0071	0.013 ± 0.0099
BT:sTNF-alpha	-0.0435 ± 0.27	0.038 ± 0.082	0.0475 ± 0.19	-0.0695 ± 0.0035	-0.0215 ± 0.047	0.096 ± 0.059	0.002 ± 0.17	0.072 ± 0.16	0.0395 ± 0.22	0.048 ± 0.14	0.085 ± 0.064	-0.0315 ± 0.037	-0.009 ± 0.025	0.0775 ± 0.044	0.113 ± 0.054	0.0645 ± 0.17	-0.069 ± 0.13	-0.0395 ± 0.067	-0.0585 ± 0.022	-0.055 ± 0.0071	-0.048 ± 0.13	-0.104 ± 0.081	-0.0485 ± 0.03	-0.045 ± 0.13	-0.11 ± 0.15	-0.0025 ± 0.16	0.0085 ± 0.028	0.0265 ± 0.21	-0.027 ± 0.079	0.119 ± 0.11
4H:VEGFR2	0.03 ± 0.059	0.017 ± 0.0028	0 ± 0.0042	-0.006 ± 0.0099	-0.001 ± 0.054	0.0265 ± 0.0078	0.0585 ± 0.018	0.0165 ± 0.0035	-0.0295 ± 0.025	0.0235 ± 0.044	-0.0155 ± 0.021	-0.0015 ± 0.032	0.014 ± 0.057	-0.0115 ± 0.023	0.029 ± 0.024	0.0575 ± 0.037	-0.0005 ± 0.016	0.0365 ± 0.021	-0.0255 ± 0.015	-0.005 ± 0.042	0.012 ± 0.05	0.01 ± 0.052	0.025 ± 0.018	-0.0175 ± 0.035	-0.006 ± 0.044	0.015 ± 0.088	0.006 ± 0.054	0.0495 ± 0.077	-0.0145 ± 0.061	0.0145 ± 0.064
BT:sIL-2	0.0385 ± 0.011	-0.051 ± 0.018	0.002 ± 0.058	-0.056 ± 0.051	0.04 ± 0.0099	0.08 ± 0.025	0.0455 ± 0.053	0.0355 ± 0.1	-0.039	0.0545 ± 0.077	0.0515 ± 0.025	0.058 ± 0.0014	-0.0075 ± 0.16	0.0545 ± 0.081	0.011 ± 0.096	-0.01 ± 0.089	-0.048 ± 0.069	-0.0505 ± 0.097	0.0065 ± 0.054	-0.0275 ± 0.14	-0.056 ± 0.017	-0.007 ± 0.075	-0.0055 ± 0.029	-0.0115 ± 0.049	0.0005 ± 0.028	-0.0225 ± 0.018	-0.067 ± 0.059	0.04 ± 0.0099	0.054 ± 0.048	-0.002 ± 0.0042
HDF3CGF:CD54/ICAM-1	0.009 ± 0.018	-0.005 ± 0.0042	-0.0045 ± 0.0064	0.0045 ± 0.0035	0.001 ± 0.0071	0.0455 ± 0.047	0.014 ± 0.024	-0.001 ± 0.0028	-0.015 ± 0.0014	-0.001 ± 0.0099	-0.013 ± 0.028	-0.022 ± 0.0085	-0.0045 ± 0.011	-0.0065 ± 0.018	-0.004 ± 0.0085	-0.017 ± 0.031	-0.0205 ± 0.0064	-0.0085 ± 0.018	0.009 ± 0.021	0.013 ± 0.0099	0.0035 ± 0.005	-0.0135 ± 0.018	-0.018 ± 0.0014	-0.021 ± 0.0042	-0.88 ± 0.26	-0.0155 ± 0.015	-0.014 ± 0.0071	-0.0135 ± 0.039	-0.0045 ± 0.032	-0.006
